The text below walks through data of publication PMC9656839.

By UniProt entry, the sequences of proteins in these tests, tags left out. Where a name states a change or a piece, a line headed by the entry shows the natural chain unless it says otherwise.
UniProt P63101: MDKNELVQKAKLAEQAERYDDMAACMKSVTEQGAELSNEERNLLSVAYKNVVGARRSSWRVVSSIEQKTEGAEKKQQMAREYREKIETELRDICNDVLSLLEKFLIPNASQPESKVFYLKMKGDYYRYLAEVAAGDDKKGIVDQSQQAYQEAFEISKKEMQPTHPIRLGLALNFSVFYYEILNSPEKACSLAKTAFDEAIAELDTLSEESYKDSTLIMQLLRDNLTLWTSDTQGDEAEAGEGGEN

The target in assay [1] is T1, PGAM2 (endogenous in KLN-205 cells) (mouse (endogenous in KLN-205)) (UniProt O70250).
T1 sequence: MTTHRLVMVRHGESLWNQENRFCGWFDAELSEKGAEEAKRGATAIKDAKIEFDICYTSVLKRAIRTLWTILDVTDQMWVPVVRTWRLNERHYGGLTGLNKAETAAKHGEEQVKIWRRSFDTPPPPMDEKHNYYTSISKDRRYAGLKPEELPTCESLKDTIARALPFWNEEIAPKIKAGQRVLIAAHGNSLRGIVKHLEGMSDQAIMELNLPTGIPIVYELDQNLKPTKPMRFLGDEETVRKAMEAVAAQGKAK
Kind of assay: proximity ligation; DuoLink In Situ Orange kit in KLN-205 cells under standard (control) culture conditions; rabbit anti-PGAM2 with mouse anti-14-3-3ζ/δ or mouse anti-RPLP0; signal measured from the nuclei (DAPI).

Assay [2] concerns the target rabbit muscle phosphoglycerate mutase PGAM2 (rabbit) (UniProt G1U7S4). Kind of assay: crystal structure; rabbit muscle PGAM2, space group P41212, one chain in the asymmetric unit, dimer by the crystallographic twofold axis; 0.1 M HEPES-NaOH pH 7.0, 0.2 M NaCl, 20% PEG6000, 292 K; both purified.

These are yes or no findings as the source states them, for the method shown. For some assays here: In cells and extracts the contact can be indirect. Some binding calls cover weakened binding; strength is not graded here.

For 14-3-3ζ/δ (from UniProt P63101 1-245), the binding entry in assay [1] is “binds”.

B1: rabbit muscle phosphoglycerate mutase PGAM2 (enzyme, UniProt G1U7S4 1-253)
chain: MATHRLVMVRHGESTWNQENRFCGWFDAELSEKGAEEAKRGAVAIKDAKMEFDICYTSVLKRAIRTLWTILDGTDQMWLPVVRTWRLNERHYGGLTGLNKAETAAKHGEEQVKIWRRSFDIPPPPMDEKHPYYTSISKERRYAGLKPGELPTCESLKDTIARALPFWNEEIAPQIKAGKRVLIAAHGNSLRGIVKHLEGMSDQAIMELNLPTGIPIVYELDQALKPTKPMRFLGDEETVRKAMEAVAAQGKAK
Turning to B1, the binding entry in assay [2] is reported as “binds”.
